Data from patent publication US7244712B2, “Aminoglycoside antibiotics and methods of using same” (priority 2004, dated 2007).

System: 70S ribosome
Assay: Fluorescence anisotropy binding to 70S ribosomes
Design: species or system E. coli
Procedure: After establishing the lack of stereospecificity in the binding of aminoglycosides to the A-site RNA constructs (FIG. 9A-C) where the binding affinity, KD, is about 0.1 μM to about 100 μM, the stereospecificity of aminoglycoside binding to intact ribosomes was determined. Both yeast and E. coli ribosomes were prepared and aminoglycoside binding was measured using fluorescence anisotropy methods. For example, fluorescence anisotropy methods recited in Wang, Y., and Rando, R. R. Chem. Biol. (1995) 2, 281-290; and Wang, Y., Hamasaki, K., and Rando, R. R. Biochemistry (1997) 36,768-779. CRP was used as the binding probe. […]
5-Carboxytetramethylrhodamine-labeled paromomycin (CRP) and tobramycin (CRT) concentrations were determined spectroscopically at 550 nm using a molar extinction coefficient of 6.00×10 4 M −1 cm −1. Fluorescence anisotropy measurements were performed on a Perkin-Elmer LS-50B luminescence spectrometer equipped with a thermostat accurate to ±0.1° C. as indicated previously (Wang, Y., Hamasaki, K., & Rando, R. R. (1997) Biochemistry 36, 768-779). The tracer solution was excited at 550 nm and monitored at 580 nm. […]
Equation 2 is used for the calculation of the KD values in the competition binding assay. […] Both Kd and KD were determined by non-linear curve fitting using the equations described above, and are presented as mean values of three independent measurements. […]

Structure (SMILES): NCC1OC(OC2C(N)CC(N)C(O)C2O)C(N)C(O)C1O (single isomer, unassigned) [4-Isomer of L-Neamine (ent-3), 4-isomer of L-Neamine]
- Preference for bacterial ribosome over eukaryotic, yeast ribosome (70S versus 80S): fivefold

Structure (SMILES): NCC1OC(OC2C(N)CC(N)C(O)C2O)C(N)C(O)C1O [L-Neamine]
- Affinity for E. coli ribosomes relative to D-neamine: two-fold greater affinity; also recorded: approximately two-fold higher affinity

“Also recorded” adds a separate entry of the source.
